Reference: US20240058447A1 (INSTIL BIO UK, published 2024)
No constants are given. Whether binding was seen depends on the method and setting. Some results given as binding are weak or reduced against the parent protein; the word gives no strength.

Protein sequences, listed by entry. Tags and fused reporters are not part of them. Residues count along the entry.
UniProt P15328, residues 25-234: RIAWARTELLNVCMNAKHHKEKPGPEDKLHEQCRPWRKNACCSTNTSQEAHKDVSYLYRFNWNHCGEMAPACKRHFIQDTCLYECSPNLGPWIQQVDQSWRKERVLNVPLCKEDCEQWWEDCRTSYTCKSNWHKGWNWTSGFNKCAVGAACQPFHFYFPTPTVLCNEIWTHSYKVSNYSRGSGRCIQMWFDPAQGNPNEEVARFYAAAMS

Target: FRα, tethered secreted form, overexpressed on HEK293 cells (human) (UniProt P15328)
Test: Retrogenix cell microarray, confirmation/specificity screens on fixed and live HEK293 cells

binding: binds
B1: MOV19 monoclonal antibody (antibody, V domains shown)
VH: QVQLQQSGAELVKPGASVKISCKASGYSFTGYFMNWVKQSHGKSLEWIGRIHPYDGDTFYNQNFKDKATLTVDKSSNTAHMELLSLTSEDFAVYYCTRYDGSRAMDYWGQGTTVTVSS
VL: DIELTQSPASLAVSLGQRAIISCKASQSVSFAGTSLMHWYHQKPGQQPKLLIYRASNLEAGVPTRFSGSGSKTDFTLNIHPVEEEDAATYYCQQSREYPYTFGGGTKLEIK
notes: also called MOV19 antibody; MOV19 anti-FRα antibody
